Experimental data: PubChem BioAssay AID1259424 (University of Nebraska Medical Center, 2018)
Here is an unselected part of about 14,000 reagents tested. 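Higher correlation or smaller distance means closer resemblance to KSR1 loss; control wells, including KSR1 knockdowns, recur on many plates.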 Not all columns of the deposit are shown. Not stated in the record: the time to read-out.

Screen: 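Seek colon cancer survival genes behaving like KSR1, using a six-gene signature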 (primary screen)
System: human HCT116 colon cancer cells
Reagent: siRNA pool against human genes, 50 nM
Detection: 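Log2 levels of six mRNAs (branched-DNA multiplex), adjusted by two reference genes and the non-targeting median, then scored against the average KSR1 knockdown pattern as Pearson r and euclidean distance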
Scale: mean correlation with KSR1 profile: higher = expression change more like KSR1 knockdown; mean distance from KSR1 profile: higher = expression change less like KSR1 knockdown

The opening 2 entries as a preview:
SIPA1L3 (signal induced proliferation associated 1 like 3) | mean correlation with KSR1 profile = -0.449; mean distance from KSR1 profile = 2.74
XKR6 (XK related 6) | mean correlation with KSR1 profile = 0.678; mean distance from KSR1 profile = 1.43

The list itself, from the start:
SIPA1L3 (signal induced proliferation associated 1 like 3) | mean correlation with KSR1 profile = -0.449; mean distance from KSR1 profile = 2.74
XKR6 (XK related 6) | mean correlation with KSR1 profile = 0.678; mean distance from KSR1 profile = 1.43
GABRB3 (gamma-aminobutyric acid type A receptor subunit beta3) | mean correlation with KSR1 profile = -0.344; mean distance from KSR1 profile = 2.76
CFAP45 (cilia and flagella associated protein 45) | mean correlation with KSR1 profile = 0.161; mean distance from KSR1 profile = 2.41
HS3ST2 (heparan sulfate-glucosamine 3-sulfotransferase 2) | mean correlation with KSR1 profile = -0.165; mean distance from KSR1 profile = 2.01
AKR7A3 (aldo-keto reductase family 7 member A3) | mean correlation with KSR1 profile = -0.323; mean distance from KSR1 profile = 4.11
TRIP4 (thyroid hormone receptor interactor 4) | mean correlation with KSR1 profile = -0.102; mean distance from KSR1 profile = 1.46
MED27 (mediator complex subunit 27) | mean correlation with KSR1 profile = -0.199; mean distance from KSR1 profile = 2.64
ADK (adenosine kinase) | mean correlation with KSR1 profile = 0.446; mean distance from KSR1 profile = 1.78
SPOCK1 | mean correlation with KSR1 profile = 0.286; mean distance from KSR1 profile = 2.05
BRD3 (bromodomain containing 3) | mean correlation with KSR1 profile = -0.085; mean distance from KSR1 profile = 3.81
H2AJ (H2A.J histone) | mean correlation with KSR1 profile = 0.0694; mean distance from KSR1 profile = 2.11
SNAI2 (snail family transcriptional repressor 2) | mean correlation with KSR1 profile = 0.614; mean distance from KSR1 profile = 1.33
SPATA1 (spermatogenesis associated 1) | mean correlation with KSR1 profile = 0.756; mean distance from KSR1 profile = 0.672
PLA2G3 (phospholipase A2 group III) | mean correlation with KSR1 profile = 0.539; mean distance from KSR1 profile = 0.966
NFYB (nuclear transcription factor Y subunit beta) | mean correlation with KSR1 profile = 0.0672; mean distance from KSR1 profile = 3.03
KIF13B (kinesin family member 13B) | mean correlation with KSR1 profile = 0.407; mean distance from KSR1 profile = 1.23
ERC1 (ELKS/RAB6-interacting/CAST family member 1) | mean correlation with KSR1 profile = -0.542; mean distance from KSR1 profile = 2.84
ATP2A3 | mean correlation with KSR1 profile = 0.825; mean distance from KSR1 profile = 0.908
